Type in all cases: cell-based
Assay [1] addresses T1, RNA polymerase II (Mus musculus) (UniProt P08775+Q8CFI7+P97760+A0A3Q4L2S8+Q80UW8+P61219+P62488+Q923G2+P60898+O08740+Q63871+P62876). Nature of the assay: Inhibition of RNA polymerase II in mouse B16-F1 migrating cells assessed as fold change in Nbeal1-RNA stability at 0.1 mM measured by ChIP-seq analysis relative to control cells.
Assay [2] concerns the target T1, RNA polymerase II (Mus musculus). Nature of the assay: Inhibition of RNA polymerase II in mouse B16-F1 migrating cells assessed as fold change in Tmem184c-RNA stability at 0.1 mM measured by ChIP-seq analysis relative to control cells.
The target is the same in assay [3]. Nature of the assay: Inhibition of RNA polymerase II in mouse B16-F1 migrating cells assessed as fold change in Dek-RNA stability at 0.1 mM measured by ChIP-seq analysis relative to control cells.
Assay [4] has the same target. Kind of assay: Inhibition of RNA polymerase II in mouse B16-F1 migrating cells assessed as fold change in Rell1-RNA stability at 0.1 mM measured by ChIP-seq analysis relative to control cells.
For assay [5] the target is unchanged. Nature of the assay: Inhibition of RNA polymerase II in mouse B16-F1 migrating cells assessed as fold change in Alyref-RNA stability at 0.1 mM measured by ChIP-seq analysis relative to control cells.
Assay [6] has the same target. Nature of the assay: Inhibition of RNA polymerase II in mouse B16-F1 migrating cells assessed as fold change in Unc13a-RNA stability at 0.1 mM measured by ChIP-seq analysis relative to control cells.
For assay [7] the target is unchanged. Kind of assay: Inhibition of RNA polymerase II in mouse B16-F1 migrating cells assessed as fold change in Klhl29-RNA stability at 0.1 mM measured by ChIP-seq analysis relative to control cells.
The target is the same in assay [8]. Nature of the assay: Inhibition of RNA polymerase II in mouse B16-F1 migrating cells assessed as fold change in Tcea1-RNA stability at 0.1 mM measured by ChIP-seq analysis relative to control cells.
Assay [9] shares this target. Nature of the assay: Inhibition of RNA polymerase II in mouse B16-F1 migrating cells assessed as fold change in Pds5a-RNA stability at 0.1 mM measured by ChIP-seq analysis relative to control cells.
Assay [10] shares this target. Nature of the assay: Inhibition of RNA polymerase II in mouse B16-F1 migrating cells assessed as fold change in Anln-RNA stability at 0.1 mM measured by ChIP-seq analysis relative to control cells.
For assay [11] the target is unchanged. Kind of assay: Inhibition of RNA polymerase II in mouse B16-F1 migrating cells assessed as fold change in Zfp800-RNA stability at 0.1 mM measured by ChIP-seq analysis relative to control cells.
The target is the same in assay [12]. Kind of assay: Inhibition of RNA polymerase II in mouse B16-F1 migrating cells assessed as fold change in Agpat2-RNA stability at 0.1 mM measured by ChIP-seq analysis relative to control cells.
Assay [13] has the same target. Kind of assay: Inhibition of RNA polymerase II in mouse B16-F1 migrating cells assessed as fold change in Trove2-RNA stability at 0.1 mM measured by ChIP-seq analysis relative to control cells.
The target is the same in assay [14]. Kind of assay: Inhibition of RNA polymerase II in mouse B16-F1 migrating cells assessed as fold change in Ppip5k2-RNA stability at 0.1 mM measured by ChIP-seq analysis relative to control cells.
For assay [15] the target is unchanged. Kind of assay: Inhibition of RNA polymerase II in mouse B16-F1 migrating cells assessed as fold change in Cep83-RNA stability at 0.1 mM measured by ChIP-seq analysis relative to control cells.
Assay [16] has the same target. Nature of the assay: Inhibition of RNA polymerase II in mouse B16-F1 migrating cells assessed as fold change in Rbbp8-RNA stability at 0.1 mM measured by ChIP-seq analysis relative to control cells.
Assay [17] has the same target. Nature of the assay: Inhibition of RNA polymerase II in mouse B16-F1 migrating cells assessed as fold change in Rps13-RNA stability at 0.1 mM measured by ChIP-seq analysis relative to control cells.
For assay [18] the target is unchanged. Nature of the assay: Inhibition of RNA polymerase II in mouse B16-F1 migrating cells assessed as fold change in Galnt7-RNA stability at 0.1 mM measured by ChIP-seq analysis relative to control cells.
The target is the same in assay [19]. Kind of assay: Inhibition of RNA polymerase II in mouse B16-F1 migrating cells assessed as fold change in Pcdh7-RNA stability at 0.1 mM measured by ChIP-seq analysis relative to control cells.
For assay [20] the target is unchanged. Nature of the assay: Inhibition of RNA polymerase II in mouse B16-F1 migrating cells assessed as fold change in Carnmt1-RNA stability at 0.1 mM measured by ChIP-seq analysis relative to control cells.
Assay [21] deals with Histone-lysine N-methyltransferase EZH2 (Mus musculus) (UniProt Q61188). Kind of assay: Inhibition of EZH2 in mouse B16-F1 migrating cells assessed as fold change in H3K27me3-buffered regulated Cdk6-mRNA expression at 3 uM measured by ChIP-seq analysis relative to control cells.
For assay [22] the target is unchanged. Kind of assay: Inhibition of EZH2 in mouse B16-F1 migrating cells assessed as fold change in H3K27me3-buffered regulated Cnnm1-mRNA expression at 3 uM measured by ChIP-seq analysis relative to control cells.
For assay [23] the target is unchanged. Nature of the assay: Inhibition of EZH2 in mouse B16-F1 migrating cells assessed as fold change in H3K27me3-buffered regulated Rttn-mRNA expression at 3 uM measured by ChIP-seq analysis relative to control cells.
Assay [24] shares this target. Nature of the assay: Inhibition of EZH2 in mouse B16-F1 migrating cells assessed as fold change in H3K27me3-buffered regulated Ttc39b-mRNA expression at 3 uM measured by ChIP-seq analysis relative to control cells.
Assay [25] has the same target. Nature of the assay: Inhibition of EZH2 in mouse B16-F1 migrating cells assessed as fold change in H3K27me3-buffered regulated Rab11fip1-mRNA expression at 3 uM measured by ChIP-seq analysis relative to control cells.
For assay [26] the target is unchanged. Kind of assay: Inhibition of EZH2 in mouse B16-F1 migrating cells assessed as fold change in H3K27me3-independent regulated Bsg-mRNA expression at 3 uM measured by ChIP-seq analysis relative to control cells.
For assay [27] the target is unchanged. Kind of assay: Inhibition of EZH2 in mouse B16-F1 migrating cells assessed as fold change in H3K27me3-buffered regulated Arhgap5-mRNA expression at 3 uM measured by ChIP-seq analysis relative to control cells.
For assay [28] the target is unchanged. Kind of assay: Inhibition of EZH2 in mouse B16-F1 migrating cells assessed as fold change in H3K27me3-buffered regulated Rarg-mRNA expression at 3 uM measured by ChIP-seq analysis relative to control cells.
For assay [29] the target is unchanged. Nature of the assay: Inhibition of EZH2 in mouse B16-F1 migrating cells assessed as fold change in H3K27me3-buffered regulated Pou3f2-mRNA expression at 3 uM measured by ChIP-seq analysis relative to control cells.
Assay [30] has the same target. Nature of the assay: Inhibition of EZH2 in mouse B16-F1 migrating cells assessed as fold change in H3K27me3-buffered regulated Mapk8-mRNA expression at 3 uM measured by ChIP-seq analysis relative to control cells.

Amino acid sequences for entries named in this document (tags omitted).
UniProt Q61188, whole entry: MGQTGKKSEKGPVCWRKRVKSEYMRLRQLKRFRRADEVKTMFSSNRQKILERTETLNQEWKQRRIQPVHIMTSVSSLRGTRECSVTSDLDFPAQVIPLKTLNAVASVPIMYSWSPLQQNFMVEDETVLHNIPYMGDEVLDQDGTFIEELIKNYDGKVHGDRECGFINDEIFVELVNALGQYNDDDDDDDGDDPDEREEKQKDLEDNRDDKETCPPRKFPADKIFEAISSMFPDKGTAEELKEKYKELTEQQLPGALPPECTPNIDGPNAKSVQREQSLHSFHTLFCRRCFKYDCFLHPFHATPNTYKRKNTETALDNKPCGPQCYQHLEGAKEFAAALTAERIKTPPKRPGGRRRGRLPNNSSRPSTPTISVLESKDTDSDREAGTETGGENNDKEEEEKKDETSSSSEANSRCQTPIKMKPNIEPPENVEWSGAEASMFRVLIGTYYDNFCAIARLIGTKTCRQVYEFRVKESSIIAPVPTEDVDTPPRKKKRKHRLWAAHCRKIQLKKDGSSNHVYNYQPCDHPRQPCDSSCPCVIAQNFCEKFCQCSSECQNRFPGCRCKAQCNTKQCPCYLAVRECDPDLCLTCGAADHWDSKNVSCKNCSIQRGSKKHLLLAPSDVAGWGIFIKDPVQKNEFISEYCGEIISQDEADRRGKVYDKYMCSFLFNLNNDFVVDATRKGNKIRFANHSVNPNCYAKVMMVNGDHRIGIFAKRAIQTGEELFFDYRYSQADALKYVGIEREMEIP

SMILES strings stand for the structures. The source gives many values for each of these; only a part stands here.

For `OC[C@H]1O[C@@H](n2cnc3cc(Cl)c(Cl)cc32)[C@H](O)[C@@H]1O`, the log2FC in assay [1] is -0.5; in [2] it was -0.68; in assay [3], -1.11; in assay [4], -0.47; in assay [5], -0.87; in [6], 0.93. Besides, the log2FC in [7] was -0.7; in [8], -0.54; in assay [9], -0.58; in [10], -0.5; in assay [11], -0.93; in assay [12] it was 0.42. The log2FC in assay [13] is -0.67; in [14] it was -0.46; in [15], -1.01; in assay [16], -0.69; in [17], 0.48; in assay [18] it was -0.88. The log2FC in assay [19] was -0.6; in assay [20], -0.62.
Consider `CCCc1cc(C)[nH]c(=O)c1CNC(=O)c1cc(-c2ccnc(N3CCN(C)CC3)c2)cc2c1cnn2C(C)C`, for which the log2FC in [21] was -0.4; in assay [22], 0.43; in [23] it was -0.53; in assay [24], 0.54; in assay [25], 0.38; in assay [26], 0.53. In addition, the log2FC is -0.48 in assay [27], -0.46 in [28], -1.32 in assay [29] and -0.39 in assay [30].
